# In PubChem BioAssay (NCATS):
# Where “and” joins values, the source holds several entries; their conditions need not be identical. Identical values can stand only once. Some of the results follow. Shown are side measurements of this screen, not its main read-out; they come without a call. Most of these compounds were active or inconclusive in the main read-out, so they are no random draw. For some of these results: Words in brackets tell the shape of the fitted curve; partial curves, single points and poor fits give uncertain potencies.
# Columns and labels:
# [1] = qHTS Assay for Inhibitors of PDE-IV (AID 607); conditions: HEK293 ACTOne CNG channel cells, membrane potential fluorescence; measured here: parental cell counter-screen
# In short: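 Live HEK293 cells with a modified cyclic nucleotide-gated (CNG) channel report intracellular cAMP via membrane-potential dye fluorescence (ex 535/em 590 nm). Endogenous PDE-IV was targeted. Compounds were tested at up to 22.9 uM final; RO 20-1724 100 uM served as control.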
# [2] = qHTS Assay for Lipid Storage Modulators (AID 1519); conditions: Drosophila S3 cells, BODIPY lipid droplet/cell ratio, laser cytometry, cells loaded with oleic acid
# In short: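 Cells seeded at 5,000 per well were treated with compounds over a concentration series and loaded with oleic acid (400 uM, as added). Lipid droplet fluorescence (488 nm excitation, 500-530 nm channel) was read by laser-scanning cytometry and normalized to 20 uM Triacsin C.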
# [3] = qHTS Validation Assay to Find Inhibitors of Chronic Active B-Cell Receptor Signaling (AID 485345); conditions: ABC-DLBCL cells, chronic BCR signaling reporter; measured here: CBR control luciferase (viability counter)
# In short: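 TMD8 ABC-DLBCL cells stably carrying doxycycline-inducible IkappaBalpha–green luciferase fusion plus unfused red luciferase; compounds 46 uM to 3 nM, 4 h at 37C with doxycycline. Corrected green/red luminescence ratio normalized to 10 uM MG-132 and basal cell wells; curves fitted.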
# [4] = qHTS Assay for Modulators of Human Peripheral Myelin Protein 22 (PMP22) Expression/Activity (AID 1967); conditions: Cell-based PMP22 reporter, dual-color luciferase ratio
# In short: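 Quantitative HTS in a mouse Schwann cell line expressing dual click beetle luciferases: Pmp22 promoter (green) and control EF-alpha promoter (red). After 24h treatment, corrected green/red signal ratio gave %Activity relative to untreated cells.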
# [5] = qHTS assay for small molecule antagonists of androgen receptor signaling (AID 588516); conditions: AR-UAS-bla HEK293, beta-lactamase ratio, antagonist mode, 16 h
# In short: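 Antagonist mode: inhibition of R1881-stimulated (10 nM final) bla reporter in GeneBLAzer AR HEK 293 cells, 16 h at 37C, compounds titrated. IC50 and efficacy from Hill-equation fits of 405/460–530 nm FRET ratios.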
# [6] = qHTS assay for small molecule antagonists of glucocorticoid receptor signaling (AID 588533); conditions: HeLa MMTV-bla, GRE beta-lactamase ratio, antagonist mode, 18 h; measured here: W530 channel AC50
# [7] = qHTS assay for small molecule antagonists of peroxisome proliferator-activated receptor gamma signaling (AID 588537); conditions: HEK293 PPARg-UAS-bla, beta-lactamase ratio, antagonist mode; measured here: W460 blue channel
# In short: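 PPARγ-UAS-bla HEK293 cells (3000/well) in 1% charcoal/dextran-stripped FBS are treated with compound, then stimulated with 50 nM rosiglitazone for 16 h at 37 °C. Read-out is CCF4 β-lactamase fluorescence after 2 h at RT. IC50 comes from Hill fits normalised to rosiglitazone and DMSO.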
# [8] = qHTS assay for small molecule antagonists of retinoid X receptor alpha signaling (AID 588546); conditions: HEK293T RXRa-UAS-bla, beta-lactamase ratio, antagonist mode; measured here: W530 green channel, cytotoxicity proxy;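 note: cells stimulated with 9-cis-retinoic acid as agonist; % is set by controls: 0 for no effect and ±100 for the full control effect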
# In short: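 Beta-lactamase reporter inhibition, read as CCF4 fluorescence ratio (ex 405, em 460/530 nm) after 2 h at RT. HEK293T UAS-bla cells, 2500/well, were stimulated with 9-cis-RA at 500 or 100 nM final alongside test compound for 18 h at 37 C.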
# [9] = qHTS assay for small molecule antagonists of peroxisome proliferator-activated receptor delta signaling (AID 588535); conditions: HEK293T PPARd-UAS-bla, beta-lactamase FRET ratio, 18 h; 460 nm channel;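 note: cells co-treated with a PPAR-delta agonist as stimulator during compound exposure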
# In short: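 Antagonist-mode beta-lactamase reporter (GeneBLAzer PPAR-delta-UAS-bla) in HEK293T cells, 2% charcoal/dextran FBS, 4000 cells/well. Compound titrations, 18 h at 37 C; CCF4 ratio read, IC50 and efficacy from Hill fits.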
# [10] = qHTS assay for small molecule agonists of retinoid X receptor alpha signaling (AID 588544); conditions: HEK293T RXRa-UAS-bla, beta-lactamase reporter, 18 h; 530 nm emission
# [11] = Nrf2 qHTS screen for inhibitors: Validation (AID 493153); conditions: A549 ARE-Fluc reporter, 18-24 h; AC50: CellTiter-Fluor fluorescence read, measured here: cytotoxicity CellTiter-Fluor AC50; viability change: measured here: cytotoxicity max response
# In short: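 A549 cells carrying ARE-firefly luciferase reporter, 5000 cells/well in 5% FBS OPTI-MEM, treated with compound over a concentration series for 18-24 h at 37 C. Luciferase luminescence gave Nrf2 activity; CellTiter-Fluor fluorescence gave viability.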
# [12] = measured here: cell count channel max response
# [13] = measured here: cell number channel AC50
# [14] = measured here: lipid (BODIPY) channel AC50
# [15] = measured here: lipid channel max response
# [16] = measured here: green reporter channel AC50, mouse Pmp22 promoter in mouse Schwann cells
# [17] = measured here: red reporter channel AC50, EF-alpha promoter control reporter in MSC80 mouse Schwann cells
compound,measurement,setting,value
Cc1nccc2c1[nH]c1ccccc12,AC50,[1],"15.8 µM [rising, single point]"
same,max response,[2]; [12],109% and 26.7% and 119%
same,AC50,[2]; [13],"1 µM [rising, full curve] and 3.16 µM [rising, full curve, poor fit]"
same,AC50,[2]; [14],"1 µM [rising, full curve] and 70.8 nM [rising, full curve, poor fit] and 3.55 µM [rising, partial curve]"
same,max response,[2]; [15],147% and 32.4% and 154%
same,AC50,[3],"16.4 µM [falling, single point]"
NC(Cc1cc(O)c(O)cc1O)C(=O)O (stereo not drawn),max response,[2]; [12],-37.3%
same,AC50,[2]; [13],"20 µM [falling, partial curve, poor fit]"
same,AC50,[2]; [14],"20 µM [falling, partial curve, poor fit]"
same,max response,[2]; [15],-38.3%
same,AC50,[4]; [16],"84.9 µM [falling, single point]"
same,AC50,[4]; [17],"84.9 µM [falling, single point]"
Oc1ccc(Cl)cc1Cc1cc(Cl)ccc1O,max response,[2]; [12],-30.9%
same,AC50,[2]; [13],"39.8 µM [falling, single point]"
same,AC50,[2]; [14],"35.5 µM [falling, single point]"
same,max response,[2]; [15],-45.5%
same,AC50,[5]; measured here: W460 blue channel fit,"50.1 µM [falling, partial curve, poor fit]"
same,AC50,"[5]; measured here: W530 green channel, cytotoxicity/artifact","35.5 µM [rising, partial curve, poor fit]"
same,AC50,[6],"44.7 µM [falling, partial curve, poor fit]"
same,AC50,[7],"17.8 µM [falling, full curve] and 31.6 µM [falling, partial curve]"
same,max response,[8],-13%
C/C=C/c1ccc2c(c1)OCO2,max response,[2]; [12],34%
same,AC50,[2]; [13],"7.94 µM [rising, partial curve]"
same,AC50,[2]; [14],"8.91 µM [rising, partial curve]"
same,max response,[2]; [15],41.5%
same,AC50,[7],"50.1 nM [falling, full curve, poor fit]"
C=CCN1CC[C@]23c4c5ccc(O)c4O[C@@H]2/C(=N/N=C2\CC[C@@]4(O)C6Cc7ccc(O)c8c7[C@@]4(CCN6CC=C)[C@@H]2O8)CC[C@@]3(O)C1C5,max response,[2]; [12],71.9%
same,AC50,[2]; [13],"44.7 µM [rising, single point]"
same,AC50,[2]; [14],"44.7 µM [rising, single point]"
same,max response,[2]; [15],74.9%
same,AC50,[4]; [16],"33.8 µM [falling, full curve]"
same,AC50,[4]; [17],"42.6 µM [falling, full curve]"
COc1ccc2[nH]cc(CCN)c2c1,max response,[2]; [12],21.7% and -29.7%
same,AC50,[2]; [13],"0.1 µM [falling, full curve, poor fit]"
same,AC50,[2]; [14],"2 µM [rising, partial curve]"
same,max response,[2]; [15],31.5% and -30.2%
same,AC50,[4]; [16],"42.6 µM [falling, full curve]"
same,AC50,[4]; [17],"42.6 µM [falling, full curve]"
CCn1cc(C(=O)O)c(=O)c2ccc(C)nc21,AC50,[1],"10 µM [rising, single point]"
same,max response,[2]; [12],42.8% and 47.2%
same,AC50,[2]; [13],"31.6 µM [rising, single point]"
same,AC50,[2]; [14],"31.6 µM [rising, single point]"
same,max response,[2]; [15],55.9% and 46%
same,max response,[9],95.3%
same,max response,[10],21.8%
CC(C)c1cccc(C(C)C)c1O,max response,[2]; [12],-37.8% and -1.94%
same,AC50,[2]; [13],"14.1 µM [falling, partial curve]"
same,AC50,[2]; [14],"10 µM [falling, partial curve, poor fit] and 3.55 µM [falling, full curve, poor fit]"
same,max response,[2]; [15],-32.2% and -2.46%
same,AC50,[7],"50100 nM [rising, single point]"
CC(=O)c1c(O)c(C)c(O)c(Cc2c(O)c3c(c(C(=O)/C=C/c4ccccc4)c2O)OC(C)(C)C=C3)c1O,max response,[2]; [12],54.8%
same,AC50,[2]; [13],"0.708 µM [rising, full curve, poor fit]"
same,AC50,[2]; [14],"0.562 µM [rising, full curve]"
same,max response,[2]; [15],76.1%
same,AC50,[4]; [16],"47.8 µM [falling, partial curve]"
same,AC50,[4]; [17],"47.8 µM [falling, partial curve]"
same,AC50,[11],"16.4 µM [falling, single point]"
same,viability change,[11],-51.8%
Ic1ccccc1CNC1C2CCN(CC2)C1C(c1ccccc1)c1ccccc1 (stereo not drawn),max response,[2]; [12],44.9%
same,AC50,[2]; [13],"0.141 µM [rising, full curve, poor fit]"
same,AC50,[2]; [14],"0.141 µM [rising, full curve, poor fit]"
same,max response,[2]; [15],44.8%
same,AC50,[4]; [16],"33.8 µM [falling, full curve]"
same,AC50,[4]; [17],"23.9 µM [falling, full curve]"
same,AC50,[3],"13 µM [falling, partial curve]"
same,AC50,[11],"29.1 µM [falling, partial curve, poor fit]"
same,viability change,[11],-29.3%
NC(N)=NC(=O)c1nc(Cl)c(N)nc1N,max response,[2]; [12],-49.8%
same,AC50,[2]; [13],"7.08 µM [falling, full curve]"
same,AC50,[2]; [14],"7.08 µM [falling, full curve]"
same,max response,[2]; [15],-47.3%
same,AC50,[3],"7.31 µM [falling, partial curve]"
same,AC50,[6],"50.1 µM [falling, partial curve, poor fit]"
